Measurements: the supplement of paper PMC10849652
Some of the results follow.

Protein sequences, listed by entry. Tags and fused reporters are not part of them. Lines headed by an entry give the natural chain unless they say otherwise; changes in a name come on top.
UniProt P29692: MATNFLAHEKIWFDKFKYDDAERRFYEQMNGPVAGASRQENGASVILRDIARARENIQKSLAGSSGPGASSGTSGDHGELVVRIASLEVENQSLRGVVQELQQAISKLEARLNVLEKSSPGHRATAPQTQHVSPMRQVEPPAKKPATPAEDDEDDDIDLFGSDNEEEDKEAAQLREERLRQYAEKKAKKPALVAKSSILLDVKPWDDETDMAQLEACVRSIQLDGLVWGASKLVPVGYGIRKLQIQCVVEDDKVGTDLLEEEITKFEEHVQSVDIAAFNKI
UniProt Q8N3D4: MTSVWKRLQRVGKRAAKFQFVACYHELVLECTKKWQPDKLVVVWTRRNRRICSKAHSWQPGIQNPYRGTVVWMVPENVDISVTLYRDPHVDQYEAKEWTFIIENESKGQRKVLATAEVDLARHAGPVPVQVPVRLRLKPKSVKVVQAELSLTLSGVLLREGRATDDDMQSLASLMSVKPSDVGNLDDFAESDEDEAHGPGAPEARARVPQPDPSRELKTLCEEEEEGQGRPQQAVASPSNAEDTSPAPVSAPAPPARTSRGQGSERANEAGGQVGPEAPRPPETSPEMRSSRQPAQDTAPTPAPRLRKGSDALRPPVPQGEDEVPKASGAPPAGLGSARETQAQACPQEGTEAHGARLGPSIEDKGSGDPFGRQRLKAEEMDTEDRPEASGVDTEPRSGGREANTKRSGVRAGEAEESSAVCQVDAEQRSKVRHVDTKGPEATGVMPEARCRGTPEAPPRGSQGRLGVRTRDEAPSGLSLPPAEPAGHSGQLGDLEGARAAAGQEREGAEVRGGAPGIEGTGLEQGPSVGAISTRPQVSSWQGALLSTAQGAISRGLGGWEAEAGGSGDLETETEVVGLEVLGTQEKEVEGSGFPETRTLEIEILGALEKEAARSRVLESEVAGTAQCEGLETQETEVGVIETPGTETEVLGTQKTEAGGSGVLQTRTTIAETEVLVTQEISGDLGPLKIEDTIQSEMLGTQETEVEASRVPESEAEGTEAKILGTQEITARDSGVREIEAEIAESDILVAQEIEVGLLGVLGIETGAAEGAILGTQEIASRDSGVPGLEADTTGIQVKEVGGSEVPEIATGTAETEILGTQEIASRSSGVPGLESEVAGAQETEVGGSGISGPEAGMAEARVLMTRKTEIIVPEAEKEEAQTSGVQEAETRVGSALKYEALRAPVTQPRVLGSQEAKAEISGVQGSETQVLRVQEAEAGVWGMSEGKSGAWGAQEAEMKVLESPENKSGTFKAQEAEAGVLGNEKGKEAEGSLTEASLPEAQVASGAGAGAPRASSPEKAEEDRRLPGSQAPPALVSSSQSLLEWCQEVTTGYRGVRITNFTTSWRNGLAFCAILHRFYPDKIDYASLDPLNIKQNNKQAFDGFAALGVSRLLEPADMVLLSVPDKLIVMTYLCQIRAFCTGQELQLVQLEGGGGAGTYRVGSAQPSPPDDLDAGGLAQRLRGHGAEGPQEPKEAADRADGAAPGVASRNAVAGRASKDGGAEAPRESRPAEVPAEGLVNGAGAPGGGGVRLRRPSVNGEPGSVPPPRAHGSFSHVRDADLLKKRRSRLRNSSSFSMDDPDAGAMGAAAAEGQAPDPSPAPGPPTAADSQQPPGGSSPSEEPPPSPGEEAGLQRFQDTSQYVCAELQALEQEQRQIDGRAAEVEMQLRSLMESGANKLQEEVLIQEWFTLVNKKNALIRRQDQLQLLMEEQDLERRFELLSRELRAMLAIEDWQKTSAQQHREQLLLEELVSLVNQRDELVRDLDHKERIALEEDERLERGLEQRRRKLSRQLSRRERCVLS
UniProt Q99848: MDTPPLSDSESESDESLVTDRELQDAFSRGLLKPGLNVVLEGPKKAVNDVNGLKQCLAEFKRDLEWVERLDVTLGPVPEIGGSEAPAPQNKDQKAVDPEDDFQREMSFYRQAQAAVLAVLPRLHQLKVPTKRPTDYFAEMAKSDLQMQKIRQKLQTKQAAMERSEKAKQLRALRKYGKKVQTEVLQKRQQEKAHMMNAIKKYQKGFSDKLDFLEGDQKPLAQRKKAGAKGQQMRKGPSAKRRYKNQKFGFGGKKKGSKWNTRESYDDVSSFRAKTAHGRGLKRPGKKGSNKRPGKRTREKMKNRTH
UniProt Q56P03: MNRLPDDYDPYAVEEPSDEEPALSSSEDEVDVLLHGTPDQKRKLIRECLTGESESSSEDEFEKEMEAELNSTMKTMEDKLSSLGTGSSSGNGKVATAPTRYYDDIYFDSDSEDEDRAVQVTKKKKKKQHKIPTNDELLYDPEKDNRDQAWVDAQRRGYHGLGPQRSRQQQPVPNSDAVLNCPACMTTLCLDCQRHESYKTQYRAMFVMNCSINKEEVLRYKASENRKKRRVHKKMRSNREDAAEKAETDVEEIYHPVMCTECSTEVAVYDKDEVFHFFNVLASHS
UniProt P60981: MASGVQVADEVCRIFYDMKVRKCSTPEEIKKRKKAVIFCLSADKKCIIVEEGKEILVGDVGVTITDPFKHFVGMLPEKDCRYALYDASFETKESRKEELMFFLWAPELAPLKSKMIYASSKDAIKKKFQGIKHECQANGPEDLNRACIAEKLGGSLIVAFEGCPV
UniProt P26641, whole entry, looked up: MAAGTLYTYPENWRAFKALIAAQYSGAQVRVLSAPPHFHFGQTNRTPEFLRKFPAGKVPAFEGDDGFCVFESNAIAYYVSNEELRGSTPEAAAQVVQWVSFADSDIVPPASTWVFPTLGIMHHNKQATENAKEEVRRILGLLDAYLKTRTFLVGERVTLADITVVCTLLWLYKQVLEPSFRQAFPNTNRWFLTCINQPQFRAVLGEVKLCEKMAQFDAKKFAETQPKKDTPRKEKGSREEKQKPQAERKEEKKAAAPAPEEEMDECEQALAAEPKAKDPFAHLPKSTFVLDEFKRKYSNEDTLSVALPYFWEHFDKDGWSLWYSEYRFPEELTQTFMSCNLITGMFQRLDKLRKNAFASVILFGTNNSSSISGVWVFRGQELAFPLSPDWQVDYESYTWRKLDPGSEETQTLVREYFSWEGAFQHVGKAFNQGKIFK
UniProt Q9H8V3: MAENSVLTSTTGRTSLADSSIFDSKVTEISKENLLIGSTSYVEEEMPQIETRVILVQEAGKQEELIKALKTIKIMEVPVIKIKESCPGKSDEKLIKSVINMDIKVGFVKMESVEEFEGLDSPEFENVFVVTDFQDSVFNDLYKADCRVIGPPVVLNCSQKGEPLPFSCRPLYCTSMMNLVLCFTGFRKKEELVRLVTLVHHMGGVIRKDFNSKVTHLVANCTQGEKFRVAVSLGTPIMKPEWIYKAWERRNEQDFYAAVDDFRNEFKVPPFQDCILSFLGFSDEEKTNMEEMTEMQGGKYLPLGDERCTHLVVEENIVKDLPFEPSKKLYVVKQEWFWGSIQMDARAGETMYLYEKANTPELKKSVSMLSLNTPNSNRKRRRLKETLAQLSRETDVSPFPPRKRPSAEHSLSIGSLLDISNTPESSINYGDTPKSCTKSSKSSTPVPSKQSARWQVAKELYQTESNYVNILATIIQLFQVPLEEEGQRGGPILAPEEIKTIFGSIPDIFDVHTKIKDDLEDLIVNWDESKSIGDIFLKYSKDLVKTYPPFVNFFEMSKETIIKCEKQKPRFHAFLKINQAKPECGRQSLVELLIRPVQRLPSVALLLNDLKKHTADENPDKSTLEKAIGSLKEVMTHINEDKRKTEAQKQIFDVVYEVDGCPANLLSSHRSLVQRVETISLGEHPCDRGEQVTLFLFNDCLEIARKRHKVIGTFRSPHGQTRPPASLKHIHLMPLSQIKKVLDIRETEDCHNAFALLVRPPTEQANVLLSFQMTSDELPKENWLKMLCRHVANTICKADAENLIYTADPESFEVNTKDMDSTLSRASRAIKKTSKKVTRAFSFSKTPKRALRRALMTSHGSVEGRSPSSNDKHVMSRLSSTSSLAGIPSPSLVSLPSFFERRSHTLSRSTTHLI
UniProt Q8NDI1: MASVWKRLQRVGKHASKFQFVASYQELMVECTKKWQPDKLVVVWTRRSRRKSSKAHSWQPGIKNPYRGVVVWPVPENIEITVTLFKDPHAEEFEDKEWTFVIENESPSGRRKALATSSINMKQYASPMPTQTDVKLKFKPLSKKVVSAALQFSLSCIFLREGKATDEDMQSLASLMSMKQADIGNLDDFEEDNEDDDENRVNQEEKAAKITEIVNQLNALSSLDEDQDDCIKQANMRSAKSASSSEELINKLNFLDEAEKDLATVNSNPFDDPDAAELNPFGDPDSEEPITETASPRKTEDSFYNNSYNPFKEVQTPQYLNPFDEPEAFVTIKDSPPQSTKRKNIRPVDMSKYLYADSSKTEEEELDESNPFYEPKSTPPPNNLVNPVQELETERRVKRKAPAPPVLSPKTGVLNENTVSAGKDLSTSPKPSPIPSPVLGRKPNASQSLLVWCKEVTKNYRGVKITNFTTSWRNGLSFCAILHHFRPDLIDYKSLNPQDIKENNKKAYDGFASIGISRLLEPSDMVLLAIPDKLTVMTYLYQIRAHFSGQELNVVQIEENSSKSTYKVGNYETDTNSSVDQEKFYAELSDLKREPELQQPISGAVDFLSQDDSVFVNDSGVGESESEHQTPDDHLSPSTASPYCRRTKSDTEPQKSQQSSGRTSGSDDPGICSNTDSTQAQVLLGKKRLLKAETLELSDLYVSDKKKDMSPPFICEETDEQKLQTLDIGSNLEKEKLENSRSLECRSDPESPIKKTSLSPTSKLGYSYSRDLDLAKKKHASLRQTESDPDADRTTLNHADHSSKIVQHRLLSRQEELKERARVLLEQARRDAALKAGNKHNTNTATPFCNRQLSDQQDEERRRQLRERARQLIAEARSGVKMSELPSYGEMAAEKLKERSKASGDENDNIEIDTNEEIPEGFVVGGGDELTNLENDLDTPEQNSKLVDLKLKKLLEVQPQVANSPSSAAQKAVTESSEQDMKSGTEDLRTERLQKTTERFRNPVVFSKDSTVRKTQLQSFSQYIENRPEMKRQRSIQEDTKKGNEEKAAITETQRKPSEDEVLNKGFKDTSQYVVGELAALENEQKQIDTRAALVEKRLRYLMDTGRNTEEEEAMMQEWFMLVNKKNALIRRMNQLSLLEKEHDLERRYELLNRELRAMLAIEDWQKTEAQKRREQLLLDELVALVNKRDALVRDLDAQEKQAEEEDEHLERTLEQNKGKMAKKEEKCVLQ
UniProt P33316: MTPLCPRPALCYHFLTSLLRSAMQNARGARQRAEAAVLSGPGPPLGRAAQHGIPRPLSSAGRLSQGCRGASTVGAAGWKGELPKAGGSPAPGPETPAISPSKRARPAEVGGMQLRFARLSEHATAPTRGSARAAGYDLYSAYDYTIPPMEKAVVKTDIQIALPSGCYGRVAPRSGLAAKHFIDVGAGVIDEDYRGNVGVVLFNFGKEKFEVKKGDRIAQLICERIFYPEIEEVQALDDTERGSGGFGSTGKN
UniProt P24534: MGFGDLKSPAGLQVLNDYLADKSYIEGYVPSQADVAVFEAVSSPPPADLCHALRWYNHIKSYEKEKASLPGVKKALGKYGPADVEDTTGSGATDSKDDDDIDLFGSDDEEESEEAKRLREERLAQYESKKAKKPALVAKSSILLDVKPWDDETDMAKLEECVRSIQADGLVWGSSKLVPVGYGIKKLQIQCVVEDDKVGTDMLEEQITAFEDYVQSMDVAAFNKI
UniProt Q96FJ2, whole entry, looked up: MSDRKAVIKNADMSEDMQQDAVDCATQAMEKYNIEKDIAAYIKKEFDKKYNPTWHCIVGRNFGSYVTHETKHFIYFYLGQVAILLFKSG
UniProt Q66K89: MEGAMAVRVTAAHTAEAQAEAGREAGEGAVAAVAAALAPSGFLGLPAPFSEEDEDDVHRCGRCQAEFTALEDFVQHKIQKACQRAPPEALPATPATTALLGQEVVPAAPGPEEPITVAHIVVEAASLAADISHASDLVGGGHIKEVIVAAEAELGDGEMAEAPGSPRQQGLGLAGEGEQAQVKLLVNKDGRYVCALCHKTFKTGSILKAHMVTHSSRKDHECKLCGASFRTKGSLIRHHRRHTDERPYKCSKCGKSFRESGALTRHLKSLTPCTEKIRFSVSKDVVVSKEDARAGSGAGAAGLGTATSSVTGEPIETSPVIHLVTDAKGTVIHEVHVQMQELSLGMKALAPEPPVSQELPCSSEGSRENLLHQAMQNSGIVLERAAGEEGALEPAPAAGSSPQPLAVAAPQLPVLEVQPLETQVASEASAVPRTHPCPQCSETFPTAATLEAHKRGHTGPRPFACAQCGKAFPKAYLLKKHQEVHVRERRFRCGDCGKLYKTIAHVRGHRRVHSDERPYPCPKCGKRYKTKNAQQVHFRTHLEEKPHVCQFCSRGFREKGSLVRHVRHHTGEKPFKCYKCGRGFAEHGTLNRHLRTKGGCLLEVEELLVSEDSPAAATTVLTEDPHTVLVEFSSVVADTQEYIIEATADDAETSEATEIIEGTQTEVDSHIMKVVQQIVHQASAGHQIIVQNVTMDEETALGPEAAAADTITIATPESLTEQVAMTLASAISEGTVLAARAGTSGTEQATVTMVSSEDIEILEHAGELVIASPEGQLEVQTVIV

The targets below were run with CC1=C(C=C(C=C1)NC(=O)C2=CC(=CC=C2)N(C)C)NC(=O)C3=CC=C(C=C3)O (assay: log2 fold change, soluble protein after heating vs DMSO (PISA); higher = thermal stabilisation; K562 lysate, 10 uM; active = over 0.2 and 3.5 SD of the protein, either way, in both replicates (recomputed)).
In short: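 K562 pellets were dounce-homogenised in PBS pH 7.4 containing 1 mM MgCl2, and the crude extract, at 1 mg/mL protein, was exposed to 10 μM compound for 30 min. Aliquots were heated for 3 min across 48°C-58°C, pooled, brought to 0.5% NP-40 at 4°C and spun at 21,000xg for 90 min, with the supernatant taken as soluble protein. TMTpro 16plex LC-MS/MS with equalised channel sums quantified that protein. Values are log-two fold changes in thermal stability relative to solvent controls, taken from duplicates.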

Row | Target | log2 fold change
1 | EEF1D isoform 2 (UniProt P29692) | inactive: 0.004
2 | DSN1 (UniProt Q9H410) | inactive: 0.025
3 | EHBP1L1 (UniProt Q8N3D4) | inactive: -0.03
4 | EBNA1BP2 (UniProt Q99848) | inactive: 0.016
5 | EAPP (UniProt Q56P03) | inactive: 0.052
6 | DSTN (UniProt P60981) | inactive: -0.012
7 | EIF1AD (UniProt Q8N9N8) | inactive: -0.004
8 | EHD1 (UniProt Q9H4M9) | inactive: 0.019
9 | EEF1G isoform 2 (UniProt P26641) | inactive: -0.004
10 | ECT2 (UniProt Q9H8V3) | inactive: 0.056
11 | EHBP1 isoform 2 (UniProt Q8NDI1) | inactive: 0.066
12 | DYNLT1 (UniProt P63172) | inactive: 0.081
13 | DUSP3 (UniProt P51452) | inactive: -0.021
14 | EEF1A1, A0A087WVQ9 | inactive: -0.006
15 | DPH5 isoform 5 (UniProt Q9H2P9) | inactive: -0.037
16 | DUT (UniProt P33316) | inactive: -0.019
17 | EEF1B2 (UniProt P24534) | inactive: 0.01
18 | DYNLL2 (UniProt Q96FJ2) | inactive: -0.031
19 | EDRF1 (UniProt Q3B7T1) | inactive: 0.039
20 | DUS1L (UniProt Q6P1R4) | inactive: 0.081
21 | E4F1 (UniProt Q66K89) | inactive: -0.052
22 | DPF2 (UniProt Q92785) | inactive: -0.011
23 | DPH2 (UniProt Q9BQC3) | inactive: -0.018

Part of the list above in a different format.
Row	Target	log2 fold change
2	DSN1 (UniProt Q9H410)	inactive: 0.025
14	EEF1A1, A0A087WVQ9	inactive: -0.006
